Data from PubChem BioAssay AID2685 (National Center for Advancing Translational Sciences (NCATS), 2010).
The other results are listed elsewhere or left out. The main result of the screen is listed elsewhere. These columns were measured beside it and carry no call. The list favours compounds with an active or inconclusive main result. The note in brackets gives the kind of curve behind each potency; many fits are weak.

Experiment: qHTS Assay for Lipid Storage Modulators in Drosophila S3 Cells;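 on cell number change: cells counted by Cell Tracker Red CMTPX staining in the red channel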
Settings: BODIPY lipid droplet fluorescence, 18-24 h; for cell number change: measured here: cell count max response, cells fed with added oleic acid
Procedure, shortened: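 Laser-scanning cytometry quantifies lipid droplet accumulation (500–530 nm total intensity; droplet/cell object ratio) in oleic acid-fed (400 uM added) Drosophila S3 cells treated with a concentration series. 20 uM Triacsin C defined 100% inhibition.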

[1] = measured here: cell number channel AC50, cells fed with added oleic acid
[2] = measured here: lipid fluorescence (Fed channel) AC50, cells fed with added oleic acid

With CN(C)S(=O)(=O)c1cccc(NC(=O)c2ccc(-n3cncn3)c([N+](=O)[O-])c2)c1 as the compound, how does the cell number change read?
Its cell number change is 14.8%.

Which cell number change does the source give for O=C(Nc1ccccc1N1CCCC1)C1CCCO1 (stereo not drawn) here?
The cell number change was -14.8%.

And the AC50 [1]?
The AC50 was 0.146 µM [falling, full curve, poor fit].

For Cc1cc(CO)nn1-c1ccc([N+](=O)[O-])cc1, which cell number change is on record?
Its cell number change is 22.7%.

And the AC50 [1]?
Its AC50 is 6.51 µM [falling, single point].

And the AC50 [2]?
Its AC50 is 6.51 µM [falling, single point].

For CC1=C(C#N)C(Nc2ccc(Cl)cn2)(C(F)(F)F)C(=O)N1 (stereo not drawn), which cell number change is on record?
Its cell number change is -44.6%.

What does the source list for COc1ccc(/C=C(/NC(=O)c2ccccc2)C(=O)N/N=C/c2ccncc2)c(OC)c1?
cell number change: 14.1%; AC50 [2]: 2.06 µM [rising, full curve]

Which cell number change does the source give for COc1ccc(C(CCNCc2ccc(OC(C)C)cc2)C(C)C)cc1 (stereo not drawn) here?
Its cell number change is -69.7%.

What about the AC50 [1] of the same compound?
The AC50 was 1.46 µM [falling, partial curve].

What about the AC50 [2] of the same compound?
Its AC50 is 1.16 µM [falling, partial curve].

With CCn1cc(C(=O)NCc2ccccn2)c(=O)c2cc(F)c(N3CCN(C)CC3)cc21 as the compound, how does the cell number change read?
The cell number change was 39.8%.

What about the AC50 [1] of the same compound?
The AC50 was 14.6 µM [rising, single point].

What about the AC50 [2] of the same compound?
The AC50 was 16.4 µM [rising, single point].

With Cc1cc(=O)n2[nH]c(N)c(N=Nc3ccccc3)c2n1 as the compound, how does the cell number change read?
Its cell number change is 21.6%.

What about the AC50 [1] of the same compound?
Its AC50 is 6.51 µM [falling, single point].

What about the AC50 [2] of the same compound?
Its AC50 is 6.51 µM [falling, single point].

Which cell number change does the source give for CN1CCC(N(C)S(=O)(=O)c2ccc(NC(=O)COc3cccc(Cl)c3)cc2)CC1 here?
The cell number change was 25%.

What about the AC50 [2] of the same compound?
Its AC50 is 6.51 µM [rising, single point].

With CCOC(=O)c1cnn(-c2cc(C)c3ccccc3n2)c1N as the compound, how does the AC50 [1] read?
Its AC50 is 0.146 µM [rising, partial curve].

And the AC50 [2]?
Its AC50 is 0.092 µM [rising, full curve, poor fit].

For Cc1ccc(NC(=O)Cn2c(=O)n(CCCC(=O)NCc3ccco3)c(=O)c3ccccc32)cc1, which cell number change is on record?
Its cell number change is -5.32%.

And the AC50 [2]?
Its AC50 is 0.58 µM [rising, full curve, poor fit].

Which cell number change does the source give for CC(C(=O)N1CCN(C(=O)c2ccco2)CC1)N1C(=O)NC2(CCCCC2C)C1=O (stereo not drawn) here?
The cell number change was -5.6%.

And the AC50 [1]?
Its AC50 is 6.51 µM [rising, single point].

What about the AC50 [2] of the same compound?
The AC50 was 6.51 µM [rising, partial curve, poor fit].

With CS(=O)(=O)Cc1cccc(C(=O)NN(c2ccccc2)c2ccccc2)c1 as the compound, how does the cell number change read?
The cell number change was 17.8%.

With NC1=NC(=O)/C(=C\c2ccc(-c3ccc(Cl)cc3)o2)S1 as the compound, how does the cell number change read?
The cell number change was -9.88%.

And the AC50 [2]?
The AC50 was 13 µM [falling, partial curve].

Which cell number change does the source give for Nc1ccc(S(=O)(=O)Nc2nc(-c3ccccc3)cc(-c3ccccc3)n2)cc1 here?
The cell number change was 5.62%.

For CCN1CCN(C(c2cccnc2)c2c(NC(=O)c3ccco3)sc(C)c2C)CC1 (stereo not drawn), which AC50 [2] is on record?
Its AC50 is 7.31 µM [falling, partial curve].

With COc1cccc(CNCCSc2nnnn2C)c1 as the compound, how does the cell number change read?
The cell number change was -19.1%.

And the AC50 [2]?
The AC50 was 2.06 µM [falling, full curve, poor fit].

With N#CCCCSc1nnnn1-c1cccc(Cl)c1 as the compound, how does the cell number change read?
Its cell number change is -9.33%.

Which cell number change does the source give for CCN(C(=O)CSc1nnc(-c2ccc(C)cc2)n1N)c1c(N)n(Cc2ccccc2)c(=O)[nH]c1=O here?
Its cell number change is -18.1%.

With O=C(CSc1nnc(Cc2cccs2)n1-c1ccc(Cl)cc1)NCc1ccc2c(c1)OCO2 as the compound, how does the cell number change read?
The cell number change was 8.04%.

For CCOC(=O)c1cnc2sc3c(n2c1=O)CCCC3, which cell number change is on record?
Its cell number change is -30.5%.

And the AC50 [1]?
Its AC50 is 29.1 µM [falling, single point].

What does the source list for CCOCCOC(=O)C(C)Oc1ccc(Oc2nc(Cl)ccc2Cl)cc1 (stereo not drawn)?
cell number change: 67.5%; AC50 [2]: 23.1 µM [rising, single point]

With O=C1COc2ccc(C(=O)COC(=O)c3nc(Cl)ccc3Cl)cc2N1 as the compound, how does the cell number change read?
The cell number change was -6.4%.

What about the AC50 [2] of the same compound?
Its AC50 is 29.1 µM [falling, single point].

With Cc1ccc(Cl)cc1N1CCN(C(=O)CSc2nnc3n2C(C)(C)Cc2ccccc2-3)CC1 as the compound, how does the cell number change read?
Its cell number change is -28.4%.

And the AC50 [2]?
Its AC50 is 14.6 µM [falling, partial curve, poor fit].

For Cc1ccc([N+](=O)[O-])cc1NC(=O)c1cccs1, which cell number change is on record?
The cell number change was 3.35%.

What about the AC50 [1] of the same compound?
Its AC50 is 0.651 µM [falling, single point].

What about the AC50 [2] of the same compound?
The AC50 was 0.651 µM [falling, single point].

With O=C(COC(=O)c1nc(Cl)ccc1Cl)c1ccc[nH]1 as the compound, how does the cell number change read?
The cell number change was -25%.

And the AC50 [2]?
Its AC50 is 0.092 µM [falling, full curve, poor fit].

For Cc1cc(Cl)c(S(=O)(=O)NC(C(=O)O)C(C)C)cc1OCC(=O)NC1CCCCC1 (stereo not drawn), which cell number change is on record?
Its cell number change is 28.7%.

Which cell number change does the source give for C[C@]12CCC(=O)C=C1CC[C@@H]1[C@@H]2[C@@H](O)C[C@@]2(C)[C@H]1CC[C@]2(O)C(=O)COC(=O)CCC(=O)O here?
The cell number change was -29.4%.

And the AC50 [1]?
The AC50 was 0.82 µM [falling, full curve, poor fit].

What about the AC50 [2] of the same compound?
Its AC50 is 4.11 µM [rising, single point].

For Cc1cccc(N2CCN(S(=O)(=O)c3ccc4c(c3)CCCN4C(=O)C3CCC3)CC2)c1C, which cell number change is on record?
Its cell number change is 25.7%.

And the AC50 [2]?
The AC50 was 0.731 µM [rising, single point].

Which cell number change does the source give for O=C(COC(=O)c1cccc([N+](=O)[O-])c1)Nc1ccc(Cl)cn1 here?
Its cell number change is 13.1%.

For Cc1cccc(-n2c(C)nc3cc(C(=O)NCc4ccc5c(c4)OCO5)ccc32)c1, which cell number change is on record?
The cell number change was 0.199%.

And the AC50 [2]?
The AC50 was 20.6 µM [rising, single point].

For O=C(Cn1[nH]c(=O)c2ccccc2c1=O)N1CCN(S(=O)(=O)c2ccc(Cl)cc2)CC1, which cell number change is on record?
The cell number change was 19.2%.

What about the AC50 [1] of the same compound?
Its AC50 is 0.00461 µM [falling, full curve, poor fit].

Which cell number change does the source give for Cc1nc(NC(=O)c2ccc(Br)o2)sc1C here?
Its cell number change is -6.31%.

What about the AC50 [2] of the same compound?
The AC50 was 16.4 µM [rising, partial curve].

Which results are given for O=C(c1ccc(Cl)c(S(=O)(=O)N2CCOCC2)c1)N(Cc1ccco1)Cc1cccs1?
cell number change: 68.5%; AC50 [1]: 4.61 µM [rising, partial curve]

Which results are given for CC1=C(C(=O)Nc2ccc(CC(=O)NCc3ccc(OC(C)C)cc3)cc2)SCCO1?
cell number change: -16.8%; AC50 [1]: 7.31 µM [falling, single point]

With COc1ccc2cc3c(N)nn(C(=O)Cc4c[nH]c5ccccc45)c3nc2c1 as the compound, how does the cell number change read?
The cell number change was -47.9%.

What about the AC50 [1] of the same compound?
The AC50 was 29.1 µM [falling, single point].

And the AC50 [2]?
Its AC50 is 1.16 µM [rising, partial curve, poor fit].

With O=C(c1ccco1)N(c1ccccn1)c1ccccn1 as the compound, how does the cell number change read?
The cell number change was -33.3%.

What about the AC50 [1] of the same compound?
Its AC50 is 3.66 µM [falling, full curve].

And the AC50 [2]?
The AC50 was 14.6 µM [falling, partial curve, poor fit].
